Experimental data taken from PubChem BioAssay AID1259415 (National Center for Advancing Translational Sciences (NCATS), 2018).
The campaign covered roughly 410,000 compounds. About 18,000 (4.4%) were called active. The shares of active, inactive and inconclusive entries below differ from those in the screen. No stated cut-off is given here; in the data, active means activity change below about -60%; inconclusive means no clear call, values can overlap the other calls; inactive means above about -39%.

Experiment: qHTS Assay for inhibitors of the human cytomegalovirus (HCMV)
Details: HFF cells, HCMV-luciferase reporter, 72 h; at 57.5 µM; stronger effect = lower value
How it was run: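 Two-dose cell screen: HFF monolayers treated with compounds and infected with luciferase-expressing HCMV at 1 PFU/cell, 72 h at 37C, then lysed for luciferase measurement.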
On the % scale 0 is the no-effect control and ±100 the full control effect.

SMILES	activity change, negative = inhibition
c1ccc(-c2cc3ccccc3[nH]2)cc1	active: -65.1%
CC[C@@](C)(NS(=O)(=O)OCC(Cl)(Cl)Cl)c1ccccc1	inconclusive: -54.7%
COc1cc(OC)cc(C(=O)NCCNc2nc3cc(C)cc(C)c3cc2C#N)c1	inactive: -2.53%
S=C(NCCCN1CCOCC1)N1CCN(c2nc(-c3ccc(Cl)cc3)cs2)CC1	active: -90.9%
O=C(CSc1nc(-c2ccccc2)c(-c2ccccc2)o1)NCCCO	inconclusive: -42.1%
COc1ccc(C(=O)Oc2c(Sc3ccccc3)c(C)nn2-c2ccccc2)c(OC)c1	inconclusive: -43.6%
COc1ccc(-c2csc(NC(=S)NC(=O)c3ccc(S(=O)(=O)N(C)C)cc3)n2)cc1OC	inconclusive: -40.4%
O=C(CNc1cccc(C(F)(F)F)c1)N/N=C/C1CCCCC1	inconclusive: -47.6%
Cc1ccc(C)c(NS(=O)(=O)c2ccc(-c3cnc(C4CC4)o3)cc2)c1	active: -82.1%
CC(C)Oc1cccc(C(=O)NC2=NCCS2)c1	inconclusive: -41.1%
COc1ccc(Br)cc1CNC(=O)CCCn1c(=O)c2cccn2c2cccnc21	inactive: -16.8%
O=c1c2ccccc2nc(/C=C/c2ccc([N+](=O)[O-])cc2)n1CCCO	inconclusive: -53.1%
Cc1ccc(C(=O)N/N=C/C=C/c2ccccc2)o1	inactive: 15.3%
Cn1cccc1C1C=C(c2ccc(C(C)(C)C)cc2)Nc2ncnn21 (stereo unspecified)	active: -80.4%
Cn1c(N2CCOCC2)c(/C=N/OC(=O)c2ccc(F)cc2)c2ccccc21	active: -95.2%
CN(C)/C=C/C(=O)c1ccc2noc(-c3cccc(F)c3)c2c1	inconclusive: -43.8%
COc1nc(NCCc2ccc(OC)c(OC)c2)nc(OC)n1	active: -98.9%
COc1ccc(Cc2nnc(Nc3ccccc3OC)[nH]c2=O)cc1	inactive: -23.9%
COc1cccc(-n2c(SCC(=O)Nc3ccc4c(c3)CCC4)nc3ccccc3c2=O)c1	active: -70.3%
CCOc1ccc(C(=O)OCC(=O)NC(C)C)cc1	inconclusive: -48%
COc1ccc(/C=C/C(=O)c2cc(Br)ccc2O)cc1OC	inactive: -26.4%
Cc1ccc(Cc2nnc3n(-c4ccccc4)nc(C(=O)c4ccccc4)n3c2=O)cc1	inconclusive: -42.5%

SMILES	activity change, negative = inhibition
CN(C)S(=O)(=O)c1ccc2c(c1)C(=O)c1cc(S(=O)(=O)N(C)C)ccc1CC2	inactive: -24.7%
COC(=O)c1cc2sccc2n1Cc1ccc(F)cc1	inconclusive: -45.2%
CC(=O)C1=CCC(c2ccc(Cl)cc2)N(S(=O)(=O)c2ccccc2)C1 (stereo unspecified)	inactive: -31.8%
CC(C)CCn1c(=O)c2ccccc2n2c(CN(C)Cc3ccccc3)nnc12	inactive: -30.3%
CCc1ccc2oc(C(=O)N3CCN(c4ccc(OC)cc4)CC3)cc(=O)c2c1	active: -62.6%
O=[N+]([O-])c1ccc(N/N=C/c2sc(N3CCOCC3)nc2-c2ccccc2)c(S(=O)(=O)Nc2ccccc2Cl)c1	inconclusive: -44.6%
CN1CCN(C(=O)C2=C[C@H](c3ccc(Br)cc3)C[C@H](OCCCCO)O2)CC1	inactive: 3.52%
CN(C)c1cc[n+](CCC(=O)Nc2cccc([N+](=O)[O-])c2N)cc1	inactive: 39.8%
CN(C)CCN(C)Cc1ccccc1Sc1cccc2ccccc12	active: -75.4%
Cc1ccccc1C(=O)c1ccc2c(c1)n(C)c(=O)n2C	inactive: 77.5%
COc1ccccc1Cc1nc2ccccc2nc1SCC(=O)NCc1ccc(F)cc1	inconclusive: -42.1%
COC(=O)c1c(NC(=O)c2ccc([N+](=O)[O-])o2)sc2c1CCN(C(C)C)C2	inconclusive: -57.7%
CCCCN1CC(=O)N2[C@H]3c4cc(Cl)ccc4OC[C@@H]3[C@H](C(=O)OCC)[C@]2(C)C1=O	inactive: -20.2%
CCc1ccc(OCC(=O)NCC(c2ccc(Cl)cc2)N2CCCCC2)cc1 (stereo unspecified)	inconclusive: -41.7%
Cc1ccc(/C=C/C(=O)NCCCN2CCN(CCCNC(=O)/C=C/c3ccc(C)cc3)CC2)cc1	inactive: -16.4%
Cc1ccc2nc(SCC(=O)Nc3cccc([N+](=O)[O-])c3)[nH]c2c1	inconclusive: -58.8%
O=C1C(=Cc2ccncc2)CCCc2ccccc21	inconclusive: -42.4%
CSCCC(NC(=O)c1ccccc1Br)C(=O)NNC(=O)c1ccco1 (stereo unspecified)	inconclusive: 0%
COc1ccc(CNC(=O)CCCCCn2c(=O)[nH]c3ccccc3c2=O)cc1	inactive: 29.6%
COc1cc(OC)cc(-c2nnc(SCc3c(F)cccc3Cl)o2)c1	inconclusive: -53.1%
O=C(c1cc[n+]([O-])cc1)N1CCc2c([nH]c3ccccc23)C1c1ccccc1Cl (stereo unspecified)	inactive: 0.277%
CCOC(=O)c1c(C)n(C)c2cc([N+](=O)[O-])c(O)c([N+](=O)[O-])c12	inconclusive: -45.6%

SMILES	activity change, negative = inhibition
CN1CCN(C(c2cccc(C(F)(F)F)c2)c2nnnn2C(C)(C)C)CC1 (stereo unspecified)	inactive: -3.7%
CCOC(=O)c1c(CSc2ccc(C)cc2)n(C)c2cc(Br)c(O)c(CN(C)C)c12	active: -62.7%
CC(=O)c1ccc(NC(=O)CN2C(=O)/C(=C/C=C/c3ccccc3)SC2=S)cc1	inconclusive: -55.3%
CC1(C)C(C=C(Cl)Cl)C1C(=O)N/N=C/c1ccccc1F (stereo unspecified)	inconclusive: -44.8%
COc1ccccc1OCCC(=O)OCC(=O)c1c(N)n(C)c(=O)n(C)c1=O	inconclusive: -40.5%
COc1ccc(OC)c(CCNC(=O)Cn2nc(C)c3c(C)n(-c4ccccc4)nc3c2=O)c1	inconclusive: -55.2%
COc1ccc(N=C2NC(=O)/C(=C\c3ccco3)S2)cc1	inconclusive: -48.9%
CCOC(=O)Nc1ccc2c(c1)N(C(=O)CCN1CCOCC1)c1ccccc1S2	inconclusive: -51.3%
COC(=O)c1cc(Br)c(=O)n(CCc2ccccc2)c1	active: -103%
CCCCC(=O)NC(c1ccc([N+](=O)[O-])cc1)c1c(O)ccc2ccccc12 (stereo unspecified)	active: -98.8%
O=C(CCCN1C(=O)/C(=C/c2ccccc2)SC1=S)Nc1ccc(O)cc1	active: -85.4%
CCOC(=O)C1(CCOc2ccccc2)CCN(Cc2cccn2-c2ncccn2)CC1	inactive: 64%
Cc1cc(NS(C)(=O)=O)c(=O)n(Cc2c(F)cccc2Cl)c1	inactive: 8.21%
Cc1cnccc1CN(C)Cc1nc(Cc2ccccc2Cl)no1	active: -60.5%
CCSc1nc2c(c(=O)n1CC)SC(C)C2 (stereo unspecified)	inactive: -11.9%
CCOc1ccc(N(C(=O)c2snc(C(N)=O)c2N)C(C(=O)NCC2CCCO2)c2c[nH]c3ccccc23)cc1 (stereo unspecified)	inconclusive: -43.7%
CCn1ncc(CN2CCCC(C(=O)Nc3cccc(-c4cc5ccccc5[nH]4)c3)C2)c1C (stereo unspecified)	inconclusive: -46.3%
COc1cccc2[nH]c3c(N4CCN(Cc5ccc6c(c5)OCO6)CC4)ncnc3c12	inconclusive: -49.6%
CCCNC(=O)C1(C)CCCN(Cc2ccccc2C#N)C1 (stereo unspecified)	inconclusive: -52.5%
C/C(=N\NC(=O)c1cc(-c2ccccc2C)nc2ccccc12)c1cccnc1	inconclusive: -49.9%
CC1(C)N=C(N)N=C(N)N1c1cccc(CC(=O)Nc2ccccc2)c1	active: -82%
CCCCc1c(-c2ccc(OC)c(OC)c2)ncn1CCc1ccccc1OC	active: -93.6%

SMILES	activity change, negative = inhibition
COc1ccc(NC(=O)CN(C)C(=O)c2ccc(NC3CC3)c([N+](=O)[O-])c2)cc1	inconclusive: -45%
Cc1ccc(C(C)C)c(OCC(=O)Nc2ccc3c(c2)nc(CCN2CCCCC2)n3C)c1	active: -81.2%
CN(C(=S)NC(=O)c1ccccc1)C1CCCCC1	inconclusive: -40%
N#Cc1ccccc1COc1cccc2c1CCCC2O (stereo unspecified)	inconclusive: -46%
O=C(/C=C/c1ccc(S(=O)(=O)NCc2ccco2)cc1)NCc1cccc(Cl)c1	inactive: 7.36%
COc1ccc(S(=O)(=O)Nc2ccc(O)c(Sc3nc4ccccc4s3)c2)cc1	inconclusive: -50.2%
COc1ccccc1CNC(=O)CN1C(=O)NC2(CCOc3ccccc32)C1=O (stereo unspecified)	inconclusive: -57.2%
COc1ccc(OC)c(-c2c(=O)n(OCc3ccccc3Br)c3ccccc3[n+]2[O-])c1	inconclusive: -57.9%
CCOc1ccc(N2CC(C(=O)Nc3ccc4c(c3)OCO4)CC2=O)cc1 (stereo unspecified)	active: -64%
COc1ccc(OC)c(NC(=O)C2(C)CCN2C(=O)Cc2ccc(Cl)cc2Cl)c1 (stereo unspecified)	inconclusive: -45.9%
CCN(CC)CCN(Cc1cc2ccc(C)c(C)c2[nH]c1=O)C(=S)NCc1ccco1	active: -77.2%
COCC(C)NC(=S)NCCc1ccc(Cl)cc1Cl (stereo unspecified)	inconclusive: -56.7%
Cc1ccc(-n2[nH]c(=O)c(-c3ccccn3)c2C)cc1	inconclusive: -49.9%
COCCN(Cc1cc2c(C)cc(C)cc2nc1Cl)C(=O)c1ccccc1F	inconclusive: -49.6%
Cc1cc(C(=O)OCC(=O)Nc2nc(-c3ccccc3)cs2)c(C)o1	active: -101%
CCOc1ccc(C2C(C(=O)Nc3ccc(C)cc3C)=C(C)Nc3c(C(=O)Nc4ccc(C)cc4)cnn32)cc1OC (stereo unspecified)	inactive: -11.8%
O=C(Nc1ccccc1N1CCCC1)c1ccc([N+](=O)[O-])cc1Cl	inconclusive: -47.6%
CC(C)(C)CC(C)(C)NC(=O)C(Nc1ccccc1)c1ccccc1F (stereo unspecified)	inactive: 48.2%
COc1nc(NC2CCCCC2)nc(N2CCCCCC2)n1	inconclusive: -44%
CCSc1nc2sc3c(c2c(=O)n1-c1ccccc1)CCN(C(C)C)C3	inconclusive: -56.8%
